Data published in paper PMC8129110.
These are yes or no findings as the source states them, for the method shown.

Legend:
[1] = molecular target: Sla2 ANTH domain K10D/K13D/K14D (S. cerevisiae); assay: dynamic light scattering; proteins mixed at 30 µM in presence of 200 µM PIP2, overnight at 4 °C; measured at 25 °C; both purified
[2] = molecular target: Sla2 ANTH domain K10D/K13D/K14D (S. cerevisiae); assay: condition: 10 µM monomeric proteins, 60 or 200 µM PIP2; native MS; ANTH and ENTH 1:1, 10 µM monomeric proteins, 60 or 200 µM PIP2, 300 mM ammonium acetate, 1 mM DTT, pH 8; both purified

B1: Ent1 ENTH domain (S. cerevisiae), wild type (domain or fragment, UniProt Q12518 1-154)
chain: MSKQFVRSAKNLVKGYSSTQVLVRNATSNDNHQVSKDSLIELAEKSYDSADFFEIMDMLDKRLNDKGKYWRHIAKALTVIDYLIRFGSENCVLWCRENLYIIKTLKEFRHEDDEGIDQGQIVRVKAKELTALLSDDERLNEERNMNIKGRNRKG
binding [1]: no binding (tested: 30 µM proteins, 200 µM PIP2)
binding [2]: no binding
